Results on one substance are retold here after article PMC6629679.

Amino acid sequences for entries named in this document (tags omitted). A change or cut given only in a name is not applied to a line headed by its entry.
UniProt Q96C92: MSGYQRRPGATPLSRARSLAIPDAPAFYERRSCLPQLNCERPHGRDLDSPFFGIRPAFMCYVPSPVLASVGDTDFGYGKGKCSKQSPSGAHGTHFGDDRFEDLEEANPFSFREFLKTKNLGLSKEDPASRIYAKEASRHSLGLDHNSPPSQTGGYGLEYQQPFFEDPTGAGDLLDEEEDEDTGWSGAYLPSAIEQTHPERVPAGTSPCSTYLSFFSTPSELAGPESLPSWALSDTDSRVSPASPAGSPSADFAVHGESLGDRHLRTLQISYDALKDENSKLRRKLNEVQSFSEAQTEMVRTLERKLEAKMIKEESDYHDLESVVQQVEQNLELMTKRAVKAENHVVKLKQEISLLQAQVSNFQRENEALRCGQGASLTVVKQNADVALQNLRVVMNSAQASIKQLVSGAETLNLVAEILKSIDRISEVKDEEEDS
UniProt Q12923: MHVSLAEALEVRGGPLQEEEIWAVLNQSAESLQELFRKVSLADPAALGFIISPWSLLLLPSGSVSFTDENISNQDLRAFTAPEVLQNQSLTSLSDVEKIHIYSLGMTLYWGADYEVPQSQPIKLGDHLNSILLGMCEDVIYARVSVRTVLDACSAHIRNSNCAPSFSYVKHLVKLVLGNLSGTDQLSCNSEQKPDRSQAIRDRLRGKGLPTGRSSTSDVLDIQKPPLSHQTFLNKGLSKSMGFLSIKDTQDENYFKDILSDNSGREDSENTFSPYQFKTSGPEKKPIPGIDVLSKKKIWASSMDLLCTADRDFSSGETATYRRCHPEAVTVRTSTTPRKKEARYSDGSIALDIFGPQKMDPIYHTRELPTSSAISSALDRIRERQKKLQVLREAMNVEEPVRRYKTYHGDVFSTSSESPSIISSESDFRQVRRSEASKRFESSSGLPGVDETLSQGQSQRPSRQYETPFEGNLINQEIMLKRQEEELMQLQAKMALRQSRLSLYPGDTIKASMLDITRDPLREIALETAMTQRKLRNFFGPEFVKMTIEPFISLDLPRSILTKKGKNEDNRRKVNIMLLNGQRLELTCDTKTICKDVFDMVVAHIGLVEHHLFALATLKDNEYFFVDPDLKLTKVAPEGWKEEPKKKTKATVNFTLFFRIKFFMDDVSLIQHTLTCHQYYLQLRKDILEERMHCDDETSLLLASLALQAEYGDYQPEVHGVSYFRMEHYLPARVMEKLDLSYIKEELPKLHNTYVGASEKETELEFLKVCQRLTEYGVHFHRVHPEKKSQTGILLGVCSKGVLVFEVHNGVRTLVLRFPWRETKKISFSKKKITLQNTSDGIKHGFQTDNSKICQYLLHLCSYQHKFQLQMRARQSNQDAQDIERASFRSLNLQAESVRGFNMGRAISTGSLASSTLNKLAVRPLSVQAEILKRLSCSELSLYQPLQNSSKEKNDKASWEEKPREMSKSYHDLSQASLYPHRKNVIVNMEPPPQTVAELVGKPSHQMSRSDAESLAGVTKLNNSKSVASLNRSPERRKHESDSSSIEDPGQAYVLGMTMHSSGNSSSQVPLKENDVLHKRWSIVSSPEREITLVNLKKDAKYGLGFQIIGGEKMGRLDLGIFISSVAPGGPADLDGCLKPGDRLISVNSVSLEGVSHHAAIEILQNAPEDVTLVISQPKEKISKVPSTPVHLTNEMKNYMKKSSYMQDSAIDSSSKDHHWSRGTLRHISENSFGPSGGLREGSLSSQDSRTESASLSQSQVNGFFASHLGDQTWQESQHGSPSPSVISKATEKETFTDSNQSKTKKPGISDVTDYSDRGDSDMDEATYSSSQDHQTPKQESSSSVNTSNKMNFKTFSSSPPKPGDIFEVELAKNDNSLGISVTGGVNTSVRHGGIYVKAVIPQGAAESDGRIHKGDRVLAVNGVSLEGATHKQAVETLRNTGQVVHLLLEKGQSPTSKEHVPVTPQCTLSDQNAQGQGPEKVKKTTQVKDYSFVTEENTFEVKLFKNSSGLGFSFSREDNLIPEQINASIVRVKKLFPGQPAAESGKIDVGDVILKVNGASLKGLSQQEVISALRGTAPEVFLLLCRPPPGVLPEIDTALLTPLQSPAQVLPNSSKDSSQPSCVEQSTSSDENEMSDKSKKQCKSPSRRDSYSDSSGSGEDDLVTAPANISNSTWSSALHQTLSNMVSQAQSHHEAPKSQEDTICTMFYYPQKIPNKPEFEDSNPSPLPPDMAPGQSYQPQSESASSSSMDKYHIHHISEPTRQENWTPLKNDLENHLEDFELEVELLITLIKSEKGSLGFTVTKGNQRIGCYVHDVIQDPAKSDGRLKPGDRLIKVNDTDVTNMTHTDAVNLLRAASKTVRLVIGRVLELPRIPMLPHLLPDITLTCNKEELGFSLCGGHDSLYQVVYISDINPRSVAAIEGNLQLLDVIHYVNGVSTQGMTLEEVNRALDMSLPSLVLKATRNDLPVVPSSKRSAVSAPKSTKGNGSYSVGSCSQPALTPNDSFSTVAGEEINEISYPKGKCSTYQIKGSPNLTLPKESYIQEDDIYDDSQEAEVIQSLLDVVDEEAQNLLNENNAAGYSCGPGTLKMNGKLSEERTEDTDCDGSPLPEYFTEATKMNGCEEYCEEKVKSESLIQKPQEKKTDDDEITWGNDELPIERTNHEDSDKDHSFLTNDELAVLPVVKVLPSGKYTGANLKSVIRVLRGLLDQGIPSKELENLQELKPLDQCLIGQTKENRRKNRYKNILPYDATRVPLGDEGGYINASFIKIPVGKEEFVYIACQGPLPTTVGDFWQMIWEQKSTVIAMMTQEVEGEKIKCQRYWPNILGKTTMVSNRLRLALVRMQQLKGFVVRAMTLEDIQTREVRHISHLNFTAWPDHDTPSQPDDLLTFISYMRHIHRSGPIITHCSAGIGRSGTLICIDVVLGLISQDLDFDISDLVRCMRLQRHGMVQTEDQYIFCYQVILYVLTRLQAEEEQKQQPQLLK

No constants are given. Whether binding was seen depends on the method and setting. In cells and extracts the contact can be indirect.

One assay concerns the target GFP-ENTR1 E171A (UniProt Q96C92). The assay can be described thus: co-IP; HeLa cells transfected with GFP-tagged ENTR1 constructs; GFP-Trap_A for 3 h at 4 °C in lysis buffer (50 mM HEPES pH 7.5, 150 mM NaCl, 1.5 mM MgCl2, 1 mM EDTA, 10% glycerol, 1% Triton X-100); western blot for endogenous PTPN13.
A further assay addresses GFP-ENTR1 P167A (UniProt Q96C92). Described as above.

Turning to “PTPN13, endogenous full-length (from UniProt Q12923 1-2485)”, the binding entry in the assay with GFP-ENTR1 E171A and with GFP-ENTR1 P167A was “no binding” each time.
